Measured values reported in PubChem BioAssay AID504444 (National Center for Advancing Translational Sciences (NCATS), 2011).
Among all 360,000 compounds or so, about 7,500 (2.1%) were called active. Inconclusive means that the source gave no clear call. Such entries were picked first, then a sample of the others. Calls follow the shape of the dose curve; as a rule, active = well fitted inhibition curve with a large enough effect; inconclusive = small, poorly fitted or top-dose-only effect, or effect the other way; inactive = flat fitted curve, though single readings scatter. A potency beside an inconclusive call is a rough fit, not a confirmed value.

assay: Nrf2 qHTS screen for inhibitors; conditions: A549 ARE-Fluc reporter, luciferase luminescence, 18-24 h; activity change, negative = inhibition: at 46 µM (top of the series); also: nearly all actives have a fitted effect of over 60% in size
Method in brief: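 Cells were seeded and rested 2 h, then exposed to compounds for 18-24 h. CellTiter-Fluor was read first as a viability measure. BugLite was added 15 min before the final luminescent read of ARE-luciferase activity in A549 cells.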
% is scaled to controls: 0 for no effect and ±100 for the full control effect; potency is read from the fitted curve at half-maximal effect.

Row | Compound | Potency | activity change, negative = inhibition
1 | Cc1ccc(N2CCN(S(=O)(=O)N3CCCCC3)CC2)c(C)c1 | active: 6.51 µM | –
2 | Cc1ccc(NS(=O)(=O)c2cc3c4c(cccc4c2)C(=O)NC3=O)cc1 | inconclusive: 32.6 µM [falling, single point] | –
3 | COc1ccc(C(=O)Nc2ccc(Cl)c(S(=O)(=O)Nc3ccccc3OC)c2)cc1 | active: 7.31 µM | –
4 | CCCOc1ccc(/C=N/NC(=O)CN(c2ccc(OCC)cc2)S(C)(=O)=O)cc1 | – | inactive: -5.53%
5 | COc1ccc(CC(=O)Nc2cc(Cl)ccc2N2CCCC2)cc1 | – | inactive: -19.4%
6 | CCSCc1nnc(SCC(=O)Nc2nc3ccccc3s2)n1C | inconclusive: 6.51 µM [activator, partial curve] | –
7 | COc1cccc(C2Nc3ccc4ccccc4c3C3=C2C(=O)CCC3)c1O (centres undefined) | inconclusive: 29.1 µM [falling, single point] | –
8 | COC(=O)c1ccc(C2NCCc3cc(OC)c(OC)cc32)cc1 (centres undefined) | – | inactive: 11.4%
9 | CSc1ccc(CNC(=O)Cc2ccc(NC(=O)C3=C(C)OCCS3)cc2)cc1 | inconclusive: 29.1 µM [falling, single point] | –
10 | CC1CCN(S(=O)(=O)c2nnc(NC(=O)c3ccccc3Br)s2)CC1 | inconclusive: 16.4 µM [falling, partial curve, poor fit] | –
11 | CC1=C(/C=N/Nc2ccc([N+](=O)[O-])cc2[N+](=O)[O-])C(C)(C)CCC1 | inconclusive: 23.1 µM [falling, single point] | –
12 | COc1ccccc1NC(=O)CN(c1cc(C)cc(C)c1)S(=O)(=O)c1c(C)[nH]c(=O)[nH]c1=O | inconclusive: 5.8 µM [activator, single point] | –
13 | Cc1ccc(Nc2nc(NCCO)nc3c2cnn3C)cc1Cl | – | inactive: -18.1%
14 | O=C(COC(=O)CCC(=O)c1ccc(F)cc1)NCc1ccco1 | inconclusive: 20.6 µM [activator, single point] | –
15 | CCN(CC(=O)NCCc1ccccc1)S(=O)(=O)c1ccc(Br)cc1 | inconclusive: 29.1 µM [falling, single point] | –
16 | Nc1nc(-c2ccccn2)nc(N)c1Cc1ccc(Cl)cc1Cl | active: 6.51 µM | –
17 | COC(=O)Cc1c(O)ccn(CCc2ccc(OC)c(OC)c2)c1=O | inconclusive: 2.59 µM [activator, partial curve, poor fit] | –
18 | O=S(=O)(c1ccccc1F)N1CCN(CCc2ccccc2)CC1 | active: 18.4 µM | –
19 | CCOC(=O)c1ccccc1NC1c2ccccc2C(=O)N1C1CCN(C(=O)OCC)CC1 (centres undefined) | active: 16.4 µM | –
20 | Cn1c(NC(=O)CCC2CCCCC2)cc(=O)n(C)c1=O | inconclusive: 7.31 µM [activator, partial curve] | –
21 | COc1ccccc1OCC(=O)N(Cc1cccs1)C1CCS(=O)(=O)C1 (centres undefined) | – | inactive: -3.24%
22 | CC(Oc1cccc(Cl)c1)C(=O)N(C)CC(=O)Nc1ccc(N2CCOCC2)cc1 (centres undefined) | inconclusive: 20.6 µM [falling, partial curve] | –
23 | Cc1ccc(OCCN2CCN(C(=O)CCC(=O)Nc3nnc(C(C)C)s3)CC2)cc1 | active: 11.6 µM | –

Row | Compound | Potency | activity change, negative = inhibition
24 | Fc1ccc(COc2ccccc2C(=S)N2CCCC2)cc1 | inconclusive: 23.1 µM [activator, single point] | –
25 | COc1ccc(S(=O)(=O)NC(C)(C)C)cc1-c1nnc2c3ccccc3c(C)nn12 | inconclusive: 1.03 µM [falling, partial curve, poor fit] | –
26 | CC(=O)c1cc(C(=O)N2CCc3c([nH]c4ccccc34)C2C2CCCCC2)[nH]n1 (centres undefined) | inconclusive: 0.82 µM [falling, partial curve, poor fit] | –
27 | Cc1ccc(C(=O)NN(CCC(=O)NC(C)(C)C)C2=NS(=O)(=O)c3ccccc32)cc1 | inconclusive: 3.26 µM [falling, full curve, poor fit] | –
28 | CCCN=C(C)C1=C(O)c2ccccc2C1=O | inconclusive: 9.2 µM [activator, partial curve] | –
29 | COc1ccccc1-c1nc(C#N)c(N2CCN(Cc3ccccc3)CC2)o1 | – | inactive: -10.8%
30 | Cc1cccc(Cn2c(=O)n(CCCC(=O)NCc3ccccc3Cl)c(=O)c3ccccc32)c1 | active: 10.3 µM | –
31 | COC(=O)c1ccc(-n2c(C)cc(C(=O)COC(=O)C3=COCCO3)c2C)cc1 | – | inactive: -22.2%
32 | O=C(N/N=C/c1ccc([N+](=O)[O-])s1)c1ccccc1 | active: 23.1 µM | –
33 | O=C1CN(C(=O)COC(=O)CNC(=O)c2ccc(Cl)cc2)c2ccccc2N1 | inconclusive: 0.651 µM [falling, full curve, poor fit] | –
34 | Cc1ccc(C)c(S(=O)(=O)Nc2ccc(O)cc2)c1 | inconclusive: 25.9 µM [falling, partial curve, poor fit] | –
35 | O=C(O)C(=O)/C(=C\c1ccccc1)c1ccc2ccccc2n1 | inconclusive: 18.4 µM [activator, partial curve] | –
36 | O=C(Cc1coc2cc(O)ccc12)N1CCN(S(=O)(=O)c2ccc(Br)cc2)CC1 | inconclusive: 25.9 µM [falling, partial curve] | –
37 | COc1ccc(N2C(=O)CSC23C(=O)N(Cc2cccc(C(F)(F)F)c2)c2ccccc23)cc1 (centres undefined) | inconclusive: 16.4 µM [falling, partial curve, poor fit] | –
38 | S=C(NCC1CCCO1)NC1CCCCC1 (centres undefined) | – | inactive: -4.38%
39 | Cn1nc(-c2ccccc2)c(C#N)c1Sc1cccc(Cl)c1 | inconclusive: 20.6 µM [falling, partial curve] | –
40 | CC(C)CN(C(=O)COC(=O)CNC(=O)c1sc2ccccc2c1Cl)C1CCS(=O)(=O)C1 (centres undefined) | inconclusive: 6.51 µM [activator, partial curve, poor fit] | –
41 | CN1C(=O)/C(=C\c2ccc(-c3ccccc3)o2)SC1=S | inconclusive: 0.146 µM [activator, full curve, poor fit] | –
42 | Cc1cc(OCc2cc(C(=O)NC(C)c3c(C)nn(C)c3C)no2)cc(C)c1Cl (centres undefined) | – | inactive: 18.9%
43 | Cc1ccc(NC(=O)c2cc(=O)c3ccccc3o2)cc1S(=O)(=O)N1CCOCC1 | inconclusive: 2.06 µM [falling, partial curve] | –
44 | NNc1ccc2c(C(F)(F)F)cc(C(F)(F)F)nc2n1 | inconclusive: 7.31 µM [falling, partial curve] | –
45 | O=C(CSc1nnc(Cn2nnc3ccccc32)o1)N(Cc1ccc(Cl)cc1)c1ccccc1 | active: 5.8 µM | –
46 | CC1(C)Cc2ccccc2C(COc2ccccc2)=N1 | inconclusive: 6.51 µM [falling, full curve, poor fit] | –

Row | Compound | Potency | activity change, negative = inhibition
47 | CCN(CC)S(=O)(=O)c1ccc(N(C)C)c(NC(=O)CSCc2c(C)noc2C)c1 | inconclusive: 2.31 µM [falling, partial curve] | –
48 | Cc1ccc(OCc2cc(C(=O)N3CCC(c4ccccc4Cl)C3)no2)cc1C (centres undefined) | inconclusive: 32.6 µM [falling, single point] | –
49 | N#Cc1ccc(Sc2nc3ccccc3[nH]2)cc1C#N | inconclusive: 0.731 µM [falling, full curve, poor fit] | –
50 | Cc1ccc(NC(=O)NCc2cccn2C)cc1C | inconclusive: 8.2 µM [activator, partial curve] | –
51 | CC1=N/C(=C\c2ccc([N+](=O)[O-])cc2)C(=O)N1c1ccc(F)cc1F | inconclusive: 23.1 µM [activator, single point] | –
52 | COc1ccccc1C1N(c2ccc(Cl)cc2)C(=O)C2CCCN21 (centres undefined) | inconclusive: 29.1 µM [activator, single point] | –
53 | C=CCc1cccc(CNc2nc3ccccc3n2C(C)C)c1O | inconclusive: 29.1 µM [falling, single point] | –
54 | COc1cc(CNCc2ccccn2)ccc1OCc1cccc(Cl)c1 | – | inactive: -22.1%
55 | O=C(OCn1ncc(Br)c(Br)c1=O)c1ccc(F)cc1 | inconclusive: 18.4 µM [falling, single point] | –
56 | COc1cc(NC(=O)CCn2c(=O)oc3ccccc32)cc(OC)c1OC | inactive | –
57 | C[n+]1c2n(c3ccccc31)N=C(c1ccccc1)CS2 | active: 3.66 µM | –
58 | Cc1cc(-c2ccc(C)c(S(=O)(=O)Nc3ccccn3)c2)on1 | inconclusive: 5.17 µM [falling, partial curve, poor fit] | –
59 | CN(C)C(=O)c1nc2ccc(Cl)cn2c1CN1CCCC(OCc2ccccc2)C1 (centres undefined) | inconclusive: 4.11 µM [falling, single point] | –
60 | CC(=O)Nc1ccc(-c2nc(C)c(C(C)=O)n2O)cc1 | inconclusive: 6.51 µM [activator, single point] | –
61 | COc1ccc(N(Cc2cccs2)C(=O)COc2cccc(C)c2C)cc1 | inconclusive: 32.6 µM [falling, single point] | –
62 | O=[N+]([O-])c1cccc(N/N=C/c2cccc(O)c2O)c1 | inconclusive: 6.51 µM [falling, full curve] | –
63 | CCc1cc2c(-c3ccccc3)cc(=O)oc2cc1OCC(C)=O | inconclusive: 29.1 µM [falling, single point] | –
64 | Cc1cc(OC(=O)c2ccccc2Br)cc(=O)n1C | inconclusive: 32.6 µM [falling, single point] | –
65 | Cc1cccc(C(=O)Nc2ccccc2-c2nnn(CC(=O)Nc3ccc4c(c3)OCCO4)n2)c1 | inconclusive: 2.59 µM [falling, full curve] | –
66 | CSc1ccc(NC(=O)C2CCN(c3ncccn3)CC2)cc1 | – | inactive: 18.8%
67 | Nc1nc(CN2CCN(Cc3ccccc3)CC2)nc(Nc2ccc3c(c2)OCCO3)n1 | inconclusive: 14.6 µM [activator, partial curve] | –
68 | N#Cc1cc(-c2ccccc2)nc(N2CCNCC2)n1 | – | inactive: 1.59%
69 | CC(C)(C)c1ccc(C(=O)C2CCCN(C(=O)CCn3cncn3)C2)cc1 (centres undefined) | inconclusive: 29.1 µM [falling, single point] | –

Some of the entries so far, in CSV form:
Row,Compound,Potency,"activity change, negative = inhibition"
62,O=[N+]([O-])c1cccc(N/N=C/c2cccc(O)c2O)c1,"inconclusive: 6.51 µM [falling, full curve]",–
63,CCc1cc2c(-c3ccccc3)cc(=O)oc2cc1OCC(C)=O,"inconclusive: 29.1 µM [falling, single point]",–
64,Cc1cc(OC(=O)c2ccccc2Br)cc(=O)n1C,"inconclusive: 32.6 µM [falling, single point]",–
65,Cc1cccc(C(=O)Nc2ccccc2-c2nnn(CC(=O)Nc3ccc4c(c3)OCCO4)n2)c1,"inconclusive: 2.59 µM [falling, full curve]",–
